We go through 1 molecule from patent US20050214219A1, “24p3 receptors and uses thereof” (priority 2003, published 2005).

These are yes or no findings as the source states them, for the method shown. Some entries that bind do so weakly or less than the wild type. Tags and fused reporters may be left off the sequences shown.

The assay has as its target T1, recombinant N-terminal epitope-tagged 24p3R-L stably expressed on HeLa cells (HeLa/24p3R-L) (murine).
T1 sequence: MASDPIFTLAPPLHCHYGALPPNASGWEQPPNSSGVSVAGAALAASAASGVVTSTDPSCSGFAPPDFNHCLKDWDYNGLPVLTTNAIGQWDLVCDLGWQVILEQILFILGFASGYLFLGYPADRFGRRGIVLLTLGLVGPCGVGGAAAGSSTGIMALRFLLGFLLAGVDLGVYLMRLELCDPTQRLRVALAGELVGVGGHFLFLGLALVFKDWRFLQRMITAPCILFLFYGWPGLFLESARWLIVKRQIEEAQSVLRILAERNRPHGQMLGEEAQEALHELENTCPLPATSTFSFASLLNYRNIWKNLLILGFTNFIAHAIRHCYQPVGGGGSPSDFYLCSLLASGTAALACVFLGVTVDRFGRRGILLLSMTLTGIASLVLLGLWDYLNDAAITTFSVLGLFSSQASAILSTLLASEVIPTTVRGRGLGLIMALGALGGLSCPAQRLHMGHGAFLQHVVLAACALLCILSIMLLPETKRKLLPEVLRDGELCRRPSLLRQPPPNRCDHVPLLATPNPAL
Description: ligand-cell binding, radiolabeled ligand on stably transfected HeLa cells.

B1: 32P-labeled 24p3 (recombinant 24p3) (ligand, mouse, UniProt P11672 21-200, looked up)
chain: QDSTQNLIPAPSLLTVPLQPDFRSDQFRGRWYVVGLAGNAVQKKTEGSFTMYSTIYELQENNSYNVTSILVRDQDQGCRYWIRTFVPSSRAGQFTLGNMHRYPQVQSYNVQVATTDYNQFAMVFFRKTSENKQYFKITLYGRTKELSPELKERFTRFAKSLGLKDDNIIFSVPTDQCIDN
modifications: 32P-labeled (position not given)
As for B1, the binding entry is given as “binds”.
